## Screening data, single-dose tests

The values are deposited in ChEMBL (CHEMBL3988442, “University of Dundee, Small-Polar-MMV Screening Library” (2021)).

A: 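Whole-cell growth test on Mycobacterium tuberculosis, read after 4 days in a medium based on cholesterol and the lipid DPPC; the read-out is not stated. Compounds at 50 µM. The record gives no direction; compounds that gave an IC50 in retests scored well above the rest, so higher reads as more growth inhibition. Size under these conditions: about 69,000 compounds, about 370 of them at 50% or above in at least one test.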
B: 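Phenotypic screen: M. tuberculosis growth, glucose 7H9 medium, 3 days; the read-out is not stated. Compounds at 50 µM. Direction is inferred from retests: higher values go with more growth inhibition. About 69,000 compounds were tested under these conditions; 1.1% (about 760) showed 50% or more at least once.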

Each number is a percent effect as filed. The record does not define 0% and 100%; most values in the screen are far below 50% and negative numbers occur (in some assays of this library far below -100). Compounds were drawn at random from those tested, without regard to their results. Two or more numbers in one place are separate tests of the same structure; such repeats can differ widely.

| # | structure | A | B |
|---|---|---|---|
| 1 | `N#Cc1cc(N2CCC(S(N)(=O)=O)CC2)c2ccccc2n1` | -19.11 | -0.7831 |
| 2 | `O=C(NCCC1CCCCO1)c1cc(COc2cncc(Cl)c2)on1` (centres unmarked) | -6.244 and 29.76 | 38.66 |
| 3 | `Cc1nc(-c2ccsc2)ccc1C(=O)N(C)CC1CC1` | 10.41 | 7.481 |
| 4 | `Cc1noc(C)c1C(=O)N1CCC2(CCc3ccccc3C(=O)N2)C1` (centres unmarked) | -0.9535 and -1.764 | 3.693 |
| 5 | `CC(C)(C)NC(=O)Cn1nc(C2CC2)cc(C(F)(F)F)c1=O` | 1.513 | 6.939 |
| 6 | `O=C(CCc1nc(Cl)n[nH]1)N1C[C@@H](CN2CCCCC2)[C@@H](CO)C1` | -3.105 | -16.55 |
| 7 | `O=C(O)C(F)(F)F.[H][C@]12CCC[C@@]1(COC)CN(C(=O)CN(C)C)C2` | -8.224 | 10.34 |
| 8 | `O=C1CC(c2cccnc2)c2c(c(C(=O)O)cn2-c2cccc(F)c2)N1` (centres unmarked) | -11.32 | 13.05 |
| 9 | `O=C(NCCNc1ncccn1)C1CC(=O)N(Cc2ccccn2)C1` (centres unmarked) | -39.29 | -48.5 |
| 10 | `c1ccc(-n2nnnc2NCc2ccc3c(c2)OCO3)cc1` | -35.98 | -24.92 |
| 11 | `C=C(C)CN1CCC(NC(=O)c2scnc2C)CC1` | 1.182 | 26.59 |
| 12 | `COc1cccc(-c2noc(C3CCN(Cc4ccc(C)cc4)C3)n2)c1.Cl` (centres unmarked) | -1.347 | -15.98 |
| 13 | `O=C1OCCN1CCNC(=O)C1(N2CCCCC2)Cc2ccccc2C1` | -1.497 | 4.811 |
| 14 | `Cc1nccn1C1CCCN(C(=O)COCC2CC2)C1` (centres unmarked) | 11.79 | 22.25 |
| 15 | `Cn1nc(Br)c2c(=O)n(CCc3ccccc3)cnc21` | -10.37 | -10.58 and 11.85 |
| 16 | `COc1cc(OC)cc(C(=O)NCC(c2cccn2C)N2CCCC2)c1` (centres unmarked) | -29.07 | -0.61 |
| 17 | `O=C(CCCNC(=O)C1CCCO1)Nc1ccc(Cl)cc1` (centres unmarked) | -42.08 | -54.43 |
| 18 | `[H][C@@]12CCN(Cc3csc(C)n3)C[C@@]1([H])O[C@@H](c1ccncn1)C2` | 2.722 | 0.8899 and 37.92 |
| 19 | `COc1ccc(C(=O)O)c(OCC(=O)NC(C)c2ccccc2)c1` (centres unmarked) | -30.48 | -21.3 |
| 20 | `CNc1ccc(CC2CCCN(C(=O)c3c(C)noc3C)C2)nn1` (centres unmarked) | -9.583 | 6.246 |
| 21 | `O=C(O)C(F)(F)F.O=C(O)C(F)(F)F.[H][C@]12C[C@H](CN(C)C)O[C@@]1([H])CN(Cc1ccco1)C2` | -3.755 | 1.615 |
| 22 | `CCN1CCCN(S(=O)(=O)c2cnc3onc(C)c3c2)CC1` | 19.16 | -16.86 and -2.499 |
| 23 | `CCc1ccc(CN2CCC3(CC2)CC(N2CCN(C)CC2)CO3)cc1.O=C(O)C(F)(F)F` (centres unmarked) | -9.983 | 2.691 |
| 24 | `O=C(NCCCN1CCCC1=O)Nc1ccc(Br)cc1Cl` | 17.75 | 18.74 |
| 25 | `CC(C)COC1CCN(C(=O)c2ccc(C(F)(F)F)[nH]c2=O)CC1` | 13.12 | 24.51 |
| 26 | `CCNc1nc(C)c(C(=O)N2CCC(C(O)Cc3ccccc3)CC2)s1` (centres unmarked) | 9.752 | -16.08 and 0.1446 |
| 27 | `N#Cc1ccc(CN2CC3(CCCCN3c3cccnc3)CC2=O)cc1.O=C(O)C(F)(F)F` (centres unmarked) | 23.42 | -3.074 and 18.17 |
| 28 | `Cc1nccc(CN2CC[C@@]3(CCCN3Cc3ccccc3)[C@@H](O)C2)n1` | 7.077 | 19.47 |
| 29 | `CC(NC(=O)NCCCn1ccnc1)c1ccc2c(c1)CCC(=O)N2` (centres unmarked) | -6.848 | 10.13 |
| 30 | `CCc1nc(C2CCCN(c3nccc(N4CCCC4)n3)C2)no1` (centres unmarked) | -8.773 | 5.405 |
| 31 | `CN(CCc1ccccn1)C(=O)c1cn2c(n1)CNCC2` | -20.32 | -20.06 |
| 32 | `Cc1ccc(-c2cc(CNC(=O)N3CCOC(C)C3)on2)cc1` (centres unmarked) | -26.14 | -11.7 |
| 33 | `CCCn1[nH]cc/c1=N\C(=O)CN1CCc2c(nc(C3CC3)n2C)C1` | -7.546 | -27.67 |
| 34 | `[H][C@]12CC=C(CN3CCCn4nc(C(=O)NCCO)cc4C3)[C@]([H])(C1)C2(C)C` | -2.761 | -0.4367 |
| 35 | `COc1cc(C(=O)N(C2CC2)C2CC(=O)NC2=O)ccc1C` (centres unmarked) | 0.2608 | -6.226 |
| 36 | `CC(C)(CNC(=O)C1CCCCN1S(C)(=O)=O)N1CCOCC1` (centres unmarked) | -5.903 | -49.75 |
| 37 | `Cc1cccc(CN2CCOC(C)(C(=O)N3CCOCC3)C2)n1` (centres unmarked) | 4.556 | -26.09 |
| 38 | `COc1cccc(Cn2ncnc2CNC(C)=O)c1` | -24.29 | -19.76 |
| 39 | `CCN(CC)C1CCN(C(=O)NCc2nncn2CC)CC1` | -18.5 | -2.384 |
| 40 | `COC(=O)c1ccc(CN(C(C)C)C(C)C)o1.Cl` | -7.586 | -8.134 and -5.146 |
| 41 | `Cc1ccc(C)c(NC(=O)c2coc(C)n2)c1` | 21.9 | 20.1 |
| 42 | `O=C(O)CC(CC(=O)NCc1ccsc1)c1cccs1` (centres unmarked) | -4.548 | -15.79 |
| 43 | `CC(C)N1CCOCC2(CCN(c3cnccn3)CC2)C1.O=C(O)C(F)(F)F` | -15.15 | 0.301 |
| 44 | `CCC[C@@H]1CN(S(=O)(=O)c2ccc(OC)c(OC)c2)C[C@H]1NC(C)=O` | -1.142 | -18.83 and -0.03405 |
| 45 | `CN(Cc1cc(Br)cn1C)C(=O)c1ccon1` | -1.163 | 4.297 |
| 46 | `O=C(O)C(F)(F)F.O=C(c1ccc[nH]1)N1CC[C@@H](OCC2CC2)[C@@H]1Cc1cccnc1` | -10.96 | -18.27 and -3.693 |